Assay results reported in patent US20170189504A1, “NOVEL PEPTIDES AND COMBINATION OF PEPTIDES FOR USE IN IMMUNOTHERAPY AGAINST VARIOUS CANCERS” (immatics biotechnologies GmbH, priority 2015, published 2017).
For some assays here: Expression grades refer to the transcript from which the peptide derives; gene names, where given, were looked up from the sequence.

Columns and labels:
HLA-A*02 = test: Identification and relative LC-MS quantitation of HLA-A*02-presented tumor-associated peptides on tissue samples (presentation profiles, Tables 13A, 13B, 15, FIG. 1); parameters: species or system human; key to Presentation score NHL / Presentation score CLL / Presentation score BRCA / Presentation score AML / Presentation score GB / Presentation score NSCLC / Presentation score GBC_CCC / Presentation score UEC / Presentation score MEL / Presentation score OSCAR / Presentation score GC / Presentation score UBC / Presentation score OC / Presentation score RCC / Presentation score CRC / Presentation score PCA / Presentation score HCC / Presentation score PC / Presentation score SCLC: specifically presented on tumors (++++); very highly over-presented on tumors compared to a panel of normal tissues (+++); highly over-presented on tumors compared to a panel of normal tissues (++); over-presented on tumors compared to a panel of normal tissues (+); conditions: for Peptide Presentation on cancer entities: HLA-A*02-binding tumor-associated peptides
source genes (mRNA) [1] = test: Expression profiling of source genes by in-house RNASeq of tumor and normal tissues (Table 18, FIG. 2); parameters: species or system human; key: very highly over-expressed in tumors compared to a panel of normal tissues (+++); highly over-expressed in tumors compared to a panel of normal tissues (++); over-expressed in tumors compared to a panel of normal tissues (+); conditions: source gene of peptide
source genes (mRNA) [2] = test: Gene and exon expression of source genes, TCGA tumor samples compared with normal tissue samples (Lonsdale, 2013) (Table 17); parameters: species or system human; conditions: for Over-expression category of source gene (target coverage), BRCA: BRCA = Breast cancer (N = 1104), tumors more than 2-fold above highest 75% percentile of normal tissues; for Over-expression category of source gene (target coverage), KICH: KICH = Kidney chromophobe (N = 66); for Over-expression category of source gene (target coverage), KIRC: KIRC = Clear cell kidney carcinoma (N = 534); for Over-expression category of source gene (target coverage), LUAD: LUAD = Lung adenocarcinoma (N = 517); for Over-expression category of source gene (target coverage), PRAD: PRAD = Prostate adenocarcinoma (N = 498)
[3] = Table 13A, cancer entities on which the peptide was found presented

## 138: peptide found in PRKDC (gene looked up) (ALLAKILQI; listed as Homo sapiens) [compound 138]
HLA-A*02; HLA-A*02 peptides, acute myeloid leukemia (N = 18) vs panel of normal tissues (N = 262)
  Presentation score AML: +++
HLA-A*02; HLA-A*02 peptides, breast cancer (N = 17) vs panel of normal tissues (N = 262)
  Presentation score BRCA: +
HLA-A*02; HLA-A*02 peptides, chronic lymphocytic leukemia (N = 17) vs panel of normal tissues (N = 262)
  Presentation score CLL: +++
HLA-A*02; HLA-A*02 peptides, colorectal cancer (N = 28) vs panel of normal tissues (N = 262)
  Presentation score CRC: ++
HLA-A*02; HLA-A*02 peptides, gastric cancer (N = 29) vs panel of normal tissues (N = 262)
  Presentation score GC: +++
HLA-A*02; HLA-A*02 peptides, melanoma (N = 7) vs panel of normal tissues (N = 262)
  Presentation score MEL: ++
HLA-A*02; HLA-A*02 peptides, non-Hodgkin lymphoma (N = 18) vs panel of normal tissues (N = 262)
  Presentation score NHL: +
HLA-A*02; HLA-A*02 peptides, non-small cell lung cancer (N = 90) vs panel of normal tissues (N = 262)
  Presentation score NSCLC: +
HLA-A*02; HLA-A*02 peptides, ovarian cancer (N = 20) vs panel of normal tissues (N = 262)
  Presentation score OC: +
HLA-A*02; HLA-A*02 peptides, renal cell carcinoma (N = 20) vs panel of normal tissues (N = 262)
  Presentation score RCC: ++
HLA-A*02; HLA-A*02 peptides, urinary bladder cancer (N = 16) vs panel of normal tissues (N = 262)
  Presentation score UBC: +
HLA-A*02; [3]
  Peptide Presentation on cancer entities: GB, GC, NSCLC, HCC, PCA, CLL, OSCAR, OC, SCLC, UBC, BRCA, GBC_CCC, MEL, RCC, CRC, AML, NHL
HLA-A*02; Table 13B, presentation on additional cancer entities
  Peptide Presentation on cancer entities: HNSCC
Source genes (mRNA) [1]; BRCA tumors vs panel of normal tissues
  Expression score BRCA: +
Source genes (mRNA) [1]; acute myeloid leukemia (N = 11) vs panel of normal tissues
  Expression score AML: +
Source genes (mRNA) [1]; colorectal cancer (N = 20) vs panel of normal tissues
  Expression score CRC: +
Source genes (mRNA) [1]; esophageal cancer incl. gastric-esophageal junction (N = 11) vs panel of normal tissues
  Expression score OSCAR: +
Source genes (mRNA) [1]; gallbladder adenocarcinoma and cholangiocarcinoma (N = 3) vs panel of normal tissues
  Expression score GBC_CCC: +
Source genes (mRNA) [1]; glioblastoma (N = 24) vs panel of normal tissues
  Expression score GB: +
Source genes (mRNA) [1]; non-Hodgkin lymphoma (N = 10) vs panel of normal tissues
  Expression score NHL: +
Source genes (mRNA) [1]; non-small cell lung cancer (N = 11) vs panel of normal tissues
  Expression score NSCLC: ++
Source genes (mRNA) [1]; ovarian cancer (N = 12) vs panel of normal tissues
  Expression score OC: ++
Source genes (mRNA) [1]; pancreatic cancer (N = 26) vs panel of normal tissues
  Expression score PC: +
Source genes (mRNA) [1]; small cell lung cancer (N = 10) vs panel of normal tissues
  Expression score SCLC: ++
Source genes (mRNA) [1]; urinary bladder cancer (N = 10) vs panel of normal tissues
  Expression score UBC: +
Source genes (mRNA) [2]; BLCA = Bladder urothelial carcinoma (N = 408), same cutoff
  Over-expression category of source gene (target coverage), BLCA: B (>= 20% of tumors above the cutoff, but <50%)
Source genes (mRNA) [2]
  Over-expression category of source gene (target coverage), BRCA: A (>=50% of tumors above the cutoff)
Source genes (mRNA) [2]; CHOL = Cholangiocarcinoma (N = 36), same cutoff
  Over-expression category of source gene (target coverage), CHOL: C (>=5% of tumors above the cutoff, but <20%)
Source genes (mRNA) [2]; COAD = Colon and rectal adenocarcinoma (N = 462), same cutoff
  Over-expression category of source gene (target coverage), COAD: B (>= 20% of tumors above the cutoff, but <50%)
Source genes (mRNA) [2]; DLBC = Lymphoid neoplasm diffuse large B-cell lymphoma (N = 48), same cutoff
  Over-expression category of source gene (target coverage), DLBC: C (>=5% of tumors above the cutoff, but <20%)
Source genes (mRNA) [2]; ESCA = Esophageal cancer (N = 185), same cutoff
  Over-expression category of source gene (target coverage), ESCA: A (>=50% of tumors above the cutoff)
Source genes (mRNA) [2]; GBM = Glioblastoma multiforme (N = 169), same cutoff
  Over-expression category of source gene (target coverage), GBM: C (>=5% of tumors above the cutoff, but <20%)
Source genes (mRNA) [2]; same cutoff
  Over-expression category of source gene (target coverage), KICH: C (>=5% of tumors above the cutoff, but <20%)
  Over-expression category of source gene (target coverage), KIRC: C (>=5% of tumors above the cutoff, but <20%)
  Over-expression category of source gene (target coverage), LUAD: B (>= 20% of tumors above the cutoff, but <50%)
  Over-expression category of source gene (target coverage), PRAD: C (>=5% of tumors above the cutoff, but <20%)
Source genes (mRNA) [2]; KIRP = Papillary kidney carcinoma (N = 291), same cutoff
  Over-expression category of source gene (target coverage), KIRP: C (>=5% of tumors above the cutoff, but <20%)
Source genes (mRNA) [2]; LAML = Acute Myeloid Leukemia (N = 173), same cutoff
  Over-expression category of source gene (target coverage), LAML: A (>=50% of tumors above the cutoff)
Source genes (mRNA) [2]; LGG = Lower grade glioma (N = 534), same cutoff
  Over-expression category of source gene (target coverage), LGG: B (>= 20% of tumors above the cutoff, but <50%)
Source genes (mRNA) [2]; LUSC = Lung squamous cell carcinoma (N = 503), same cutoff
  Over-expression category of source gene (target coverage), LUSC: A (>=50% of tumors above the cutoff)
Source genes (mRNA) [2]; OV = Ovarian serous cystadenocarcinoma (N = 309), same cutoff
  Over-expression category of source gene (target coverage), OV: C (>=5% of tumors above the cutoff, but <20%)
Source genes (mRNA) [2]; PAAD = Pancreatic ductal adenocarcinoma (N = 179), same cutoff
  Over-expression category of source gene (target coverage), PAAD: C (>=5% of tumors above the cutoff, but <20%)
Source genes (mRNA) [2]; READ = Colon and rectal adenocarcinoma (N = 167), same cutoff
  Over-expression category of source gene (target coverage), READ: B (>= 20% of tumors above the cutoff, but <50%)
Source genes (mRNA) [2]; SKCM = Skin cutaneous melanoma (N = 473), same cutoff
  Over-expression category of source gene (target coverage), SKCM: A (>=50% of tumors above the cutoff)
Source genes (mRNA) [2]; STAD = Stomach adenocarcinoma (N = 415), same cutoff
  Over-expression category of source gene (target coverage), STAD: A (>=50% of tumors above the cutoff)
Source genes (mRNA) [2]; UCEC = Uterine corpus endometrial carcinoma (N = 546), same cutoff
  Over-expression category of source gene (target coverage), UCEC: C (>=5% of tumors above the cutoff, but <20%)

## 146: peptide found in RORC (gene looked up) (ALHFSEDEI; listed as Homo sapiens) [compound 146]
HLA-A*02; HLA-A*02 peptides, prostate cancer and benign prostate hyperplasia (N = 39) vs panel of normal tissues (N = 262)
  Presentation score PCA: +++
HLA-A*02; HLA-A*02 peptides, uterine cancer (N = 15) vs panel of normal tissues (N = 262)
  Presentation score UEC: +
HLA-A*02; [3]
  Peptide Presentation on cancer entities: PCA, UEC
Source genes (mRNA) [1]; hepatocellular carcinoma (N = 15) vs panel of normal tissues
  Expression score HCC: +
Source genes (mRNA) [2]
  Over-expression category of source gene (target coverage), BRCA: C (>=5% of tumors above the cutoff, but <20%)
Source genes (mRNA) [2]; same cutoff
  Over-expression category of source gene (target coverage), KICH: B (>= 20% of tumors above the cutoff, but <50%)
  Over-expression category of source gene (target coverage), KIRC: C (>=5% of tumors above the cutoff, but <20%)
  Over-expression category of source gene (target coverage), LUAD: C (>=5% of tumors above the cutoff, but <20%)
  Over-expression category of source gene (target coverage), PRAD: B (>= 20% of tumors above the cutoff, but <50%)
Source genes (mRNA) [2]; LIHC = Liver hepatocellular carcinoma (N = 374), same cutoff
  Over-expression category of source gene (target coverage), LIHC: B (>= 20% of tumors above the cutoff, but <50%)
